From paper PMC12040169 (PLOS Biology, 2025)
The other results are listed elsewhere or left out.

The compounds below were run on T1, CTL2-GFP (C. trachomatis L2/434/Bu, GFP-expressing). Settings: bulk GFP, single well; 28.5 h, 10 µM; inhibitor.
T1 construct: L2/434/Bu, GFP-expressing
Parameters: species or system HeLa; Intracellular C. trachomatis growth in HeLa cells, bulk GFP fluorescence relative to DMSO
For `O=C(CSc1nnc(-c2ccncc2)n1-c1ccccc1)Nc1ccc([N+](=O)[O-])cc1` [CBK266620], the “% of control remaining” value was 149.604%.
For `O=C1N/C(=N/N=C/c2ccc(O)cc2)SC1Cc1ccccc1[N+](=O)[O-]` (stereo not drawn) [CBK261684], the “% of control remaining” value was 111.564%.
In the case of `O=C(c1cccc(C(F)(F)F)c1)N1CCCC2(CCN(Cc3ccccc3)C2)C1` (stereo not drawn) [CBK137039], the “% of control remaining” value is reported as 132.001%.
In the case of `COc1nc(NCCN2CCOCC2)nc(Nc2ccc(Cl)cc2)n1` [CBK262541], the “% of control remaining” value is reported as 97.4241%.
With `O=C(COc1ccccc1)C(C(=O)c1ccccc1)=C1Nc2ccccc2N1` [CBK263725] the “% of control remaining” value was 134.544%.
`Cc1ccc(-c2csc3nc(SCC(=O)NCC4CCCO4)n(-c4ccccc4)c(=O)c23)cc1` (stereo not drawn) [CBK265610] was tested, and the “% of control remaining” value was 112.081%.
In the case of `CS(=O)(=O)N1CCN(c2ccccc2NC(=O)COc2ccccc2Cl)CC1` [CBK269250], the “% of control remaining” value is reported as 101.717%.
With `O=C(NC1CC1)c1ccsc1NC(=O)C1C2C=CC(C2)C1C(=O)O` (stereo not drawn) [CBK270322] the “% of control remaining” value was 98.1527%.
With `COCCNC(=O)c1ccc(-n2ccnc2)c(-n2cccc2)c1` [CBK285369] the “% of control remaining” value was 128.179%.
`CC(C)COC(=O)N1CCC2(CC1)CC(=O)N(Cc1ccc(S(C)(=O)=O)cc1)C2=O` [CBK155948] was tested, and the “% of control remaining” value was 137.788%.
With `CCOC(=O)CSc1nnc(NS(=O)(=O)c2cccc(Cl)c2C)s1` [CBK004669] the “% of control remaining” value was 90.5164%.
With `CCOCCn1nc(C)cc1C(=O)NC(CC)c1cn2cccnc2n1` (stereo not drawn) [CBK307377] the “% of control remaining” value was 189.394%.
For `Nc1nc(CCN2CCOCC2=O)cs1` [CBK003792], the “% of control remaining” value was 101.67%.
`COCCNc1nc(-c2ccccc2)ccc1C(=O)Nc1cccc(OC)c1` [CBK105886] was tested, and the “% of control remaining” value was 171.206%.
For `COCCC(=O)N1C[C@@H]2C[C@H](C1)c1ccc(NC(=O)Nc3cccc(F)c3)c(=O)n1C2` [CBK289075], the “% of control remaining” value was 128.964%.
For `CCOC(=O)C(NC(=O)C1CCC(=O)N1)c1cccc(C)c1C` (stereo not drawn) [CBK305472], the “% of control remaining” value was 155.154%.
With `Cc1cccc(OCC2CCCN(C(=O)c3cn(C)cn3)C2)c1` (stereo not drawn) [CBK307021] the “% of control remaining” value was 124.37%.
In the case of `O=C(NCCN1CCC(O)(c2ccc(F)cc2)CC1)C1CCCCC1` [CBK283165], the “% of control remaining” value is reported as 108.546%.
In the case of `Cc1cc(N(C)Cc2ccccc2Br)nc(N)n1` [CBK297753], the “% of control remaining” value is reported as 70.2661%.
`CC1(c2ccccc2)NC(NC2CCCCC2)=NC1=O` (stereo not drawn) [CBK008081] was tested, and the “% of control remaining” value was 149.602%.
For `Cc1nnc(SCc2nc(N)nc(Nc3ccccc3)n2)s1` [CBK266436], the “% of control remaining” value was 118.038%.
With `CN1CCN(C(=S)SCC(=O)O)CC1` [CBK261549C] the “% of control remaining” value was 102.716%.
In the case of `O=C(NCCc1c[nH]c2ccc(Cl)cc12)c1cccnc1` [CBK159778], the “% of control remaining” value is reported as 95.6449%.
With `Cc1nn(-c2ncccn2)c2c1C(C(=O)c1ccccc1)CC(=O)N2` (stereo not drawn) [CBK287890] the “% of control remaining” value was 145.07%.
`COc1cncc(-c2cnc(N)c(N3CCOCC3)n2)c1` [CBK063360] was tested, and the “% of control remaining” value was 171.27%.
In the case of `COc1cccc(NC(=O)N2CCN3C(=O)[C@H](CC4CCCCC4)NC(=O)[C@H]3C2)c1` [CBK289615], the “% of control remaining” value is reported as 92.7843%.
In the case of `Cc1cnc2[nH]c(C3CCCN(C(=O)c4cnn(C)c4C)C3)cc2c1` (stereo not drawn) [CBK285171], the “% of control remaining” value is reported as 100.302%.
In the case of `CC(=O)c1c(C)oc2ccc(N(C(=O)c3cccc([N+](=O)[O-])c3)S(=O)(=O)c3cccc4cccnc34)cc12` [CBK267044], the “% of control remaining” value is reported as 109.452%.
`COc1cccc(CC(=O)Nc2ccc3c(C)cc(C)nc3n2)c1` [CBK287992] was tested, and the “% of control remaining” value was 147.416%.
In the case of `Cc1cnn(CC(=O)N2CCC(c3cc4ncccc4[nH]3)CC2)c1` [CBK284458], the “% of control remaining” value is reported as 154.264%.
With `COc1ccc(C(=O)CN2CCN(CCN3C(=O)c4cccc5cccc(c45)C3=O)CC2)cc1` [CBK074628] the “% of control remaining” value was 135.696%.
For `CC(C)(C)OC(=O)N1CCN(c2ccc([N+](=O)[O-])cn2)CC1` [CBK000134], the “% of control remaining” value was 85.9434%.
In the case of `COc1ccc2c(c1)OC1(CCN(C(=O)c3cc(OC)c(C)c(OC)c3)CC1)NC2=O` [CBK166244], the “% of control remaining” value is reported as 123.419%.
With `CCn1cc(C(=O)O)c(=O)c2cc(F)c(N3CCN(C(=O)c4ccc(C)cc4)CC3)cc21` [CBK286986] the “% of control remaining” value was 150.948%.
`CC(CCCC(C)(C)O)CC1OCCC(C)O1` (stereo not drawn) [CBK019986] was tested, and the “% of control remaining” value was 107.249%.
`Cc1onc(-c2c(Cl)cccc2Cl)c1N(C)C(=O)N1CCCCC1` [CBK086555] was tested, and the “% of control remaining” value was 80.0839%.
With `Cc1cc(NC(=O)c2cccc(N3C(=O)CCC3=O)c2)no1` [CBK287352] the “% of control remaining” value was 82.2964%.
With `CCN(CC(C)C#N)C(=O)c1nnn(-c2ccc3ncccc3c2)c1C` (stereo not drawn) [CBK305292] the “% of control remaining” value was 148.405%.
`Cc1occc1-c1nnc(SCC(=O)Nc2c(C)n(C)n(-c3ccccc3)c2=O)o1` [CBK269042] was tested, and the “% of control remaining” value was 87.5344%.
For `CC(C)(C)Cc1ccc(CC(=O)O)c(OCc2ccccc2)n1` [CBK012508], the “% of control remaining” value was 124.24%.
In the case of `NCc1ccc(CN(Cc2ccc(-c3ccccc3)cc2)C(=O)Nc2c(F)cccc2F)cc1` [CBK046115C], the “% of control remaining” value is reported as 41.1804%.
`COCCCNC(=S)Nc1ccc(N2CCOCC2)c2nonc12` [CBK266947] was tested, and the “% of control remaining” value was 158.847%.
With `CCn1cc(S(=O)(=O)NC2(c3ccc(F)cc3)CC2)cn1` [CBK282801] the “% of control remaining” value was 85.1844%.
`C/C(=N\NC(=O)CSc1nc2ccccc2n1Cc1ccccc1)c1ccco1` [CBK263180] was tested, and the “% of control remaining” value was 98.8829%.
For `Cn1ccc(C(=O)NC(Cc2ccsc2)c2cccnc2)n1` (stereo not drawn) [CBK285117], the “% of control remaining” value was 77.3348%.
In the case of `Cc1c(C(=O)O)sc(S(=O)(=O)N2CCN(C(=O)CCc3cccs3)CC2)c1C(=O)O` [CBK297135], the “% of control remaining” value is reported as 129.081%.
With `Cc1nnsc1C(=O)Nc1ncn(CC(=O)N2CCCCCC2)n1` [CBK305522] the “% of control remaining” value was 125.192%.
In the case of `COc1ccc(CCC(=O)Nc2ccccc2N2CCCNCC2)cc1` [CBK024286T], the “% of control remaining” value is reported as 125.616%.
For `O=C(Cc1cccs1)N1CCC(c2cc3ncccc3[nH]2)CC1` [CBK283393], the “% of control remaining” value was 113.824%.
In the case of `Cc1cc(CNC(=O)COc2ccc(C#N)cc2)c2ccccc2n1` [CBK270129], the “% of control remaining” value is reported as 126.623%.
For `COc1cc(Cl)c(C)cc1NC(=O)c1ncn(-c2ccccc2)n1` [CBK269456], the “% of control remaining” value was 141.751%.
In the case of `O=C(O)COc1ccc(Br)cc1/C=C\c1nc(O)c([N+](=O)[O-])c(=O)[nH]1` [CBK267223], the “% of control remaining” value is reported as 157.083%.
With `O=C(CSc1nc2cccnc2[nH]1)Nc1cc(Cl)ccc1Cl` [CBK264644] the “% of control remaining” value was 100%.
In the case of `Cn1c(=O)oc2cc(S(=O)(=O)NCCC(=O)O)ccc21` [CBK267567], the “% of control remaining” value is reported as 133.519%.
For `CCc1noc(C)c1C(=O)N1CC[C@@H](CNC(=O)N2CCCC2)[C@H](O)C1` [CBK307222], the “% of control remaining” value was 130.068%.
For `Fc1ccc(CCN2CCC(Oc3nccnc3OCCN3CCOCC3)CC2)cc1` [CBK082937T], the “% of control remaining” value was 94.8687%.
With `Cc1cccc(OCc2nnc(SCC(=O)Nc3cc(C(F)(F)F)ccc3Cl)o2)c1C` [CBK267204] the “% of control remaining” value was 171.864%.
`Cc1csc2nc(-c3ccccc3)cn12` [CBK098072] was tested, and the “% of control remaining” value was 72.1798%.
In the case of `O=C(Nc1cccc(N2CCNCC2)c1)C1CCCO1` (stereo not drawn) [CBK004768T], the “% of control remaining” value is reported as 100%.
`O=[N+]([O-])c1ccc(N2CCNCC2)cc1NCCO` [CBK262851] was tested, and the “% of control remaining” value was 117.568%.
In the case of `O=C1CCC2(CCN1)CCN(Cc1cccc(-c3ccco3)c1)CC2` [CBK307264], the “% of control remaining” value is reported as 100.937%.
For `O=[N+]([O-])c1cccc(S(=O)(=O)NCCSc2ccccc2)c1` [CBK267862], the “% of control remaining” value was 122.79%.
`O=C(NCc1ccncc1)C1CC1c1ccccc1` (stereo not drawn) [CBK288242] was tested, and the “% of control remaining” value was 150.204%.
In the case of `CN(CC(=O)O/N=C(\N)c1ccccn1)S(=O)(=O)c1ccc(Br)cc1` [CBK268617], the “% of control remaining” value is reported as 153.508%.
`CCN1C(=O)c2cccc3c(S(=O)(=O)Nc4cccc(C(=O)O)c4)ccc1c23` [CBK299838] was tested, and the “% of control remaining” value was 162.049%.
In the case of `Cc1cc2nc(NC(=N)N)nc(C)c2cc1C` [CBK262269], the “% of control remaining” value is reported as 84.1179%.
With `CCOC(=O)c1[nH]c2c([N+](=O)[O-])cccc2c1O` [CBK115315] the “% of control remaining” value was 97.6624%.
For `C[C@H](NC(=O)OC1CC[C@@]2(c3ccccc3)CCN(C)[C@H]2C1)c1cccc2ccccc12` (stereo partly drawn) [CBK003664], the “% of control remaining” value was 92.1451%.
`O=C(O)CSCC(=O)N(Cc1ccccc1)c1nc(-c2ccccc2)c(-c2ccccc2)s1` [CBK296138] was tested, and the “% of control remaining” value was 126.625%.
`Cn1ncc2c1CCCN(C(=O)CCCOc1ccccc1F)C2` [CBK285278] was tested, and the “% of control remaining” value was 135.512%.
In the case of `CCC(C)(C)c1ccc(S(=O)(=O)N2CCN(Cc3ccc(O)c(F)c3)CC2)cc1` [CBK062968], the “% of control remaining” value is reported as 109.5%.
`COCCOCC(C)NC(=O)COc1nn(C)c2nc(C)cc(C)c12` (stereo not drawn) [CBK305177] was tested, and the “% of control remaining” value was 88.8527%.
`CNCc1cccc(OC)c1OCc1ccccc1F` [CBK269949C] was tested, and the “% of control remaining” value was 90.4752%.
For `CN1CCN(c2nc(-c3ccoc3)cnc2N)CC1` [CBK063362], the “% of control remaining” value was 167.539%.
`CC(C)N(CCC(c1ccccc1)c1cc(Br)ccc1OCc1ccccc1)C(C)C` (stereo not drawn) [CBK017656] was tested, and the “% of control remaining” value was 66.3297%.
With `CCOC(=O)c1cc(C)sc1NC(=O)CCC(=O)O` [CBK265412] the “% of control remaining” value was 105.48%.
For `Cc1ccc(NC(=O)c2ccc(-n3nncc3C)cc2)cc1` [CBK287790], the “% of control remaining” value was 128.192%.
With `COCCNC(=O)C1(O)c2ccccc2NC(=O)N1c1cccc(OC)c1` (stereo not drawn) [CBK288589] the “% of control remaining” value was 135.761%.
